Experimental data reported in PubChem BioAssay (EPA / NIEHS).
For some assays here: Shown are results outside the selection of hits, which stands elsewhere. Results filed as inconclusive are left out. Only a part is listed here, and it is no random draw. Active and inactive are the calls of the source. The calls were made as follows, unless noted: active = hit-call score of the fitted dose curve at least 0.9, where 1 is the maximum; inactive = score below 0.9.

Tests used:
[1] = read-out: Transforming growth factor beta 1 (TGFb1), TGFB1 (gene 7040); assay: BSK_BE3C_TGFb1: BioMAP Diversity Plus: BE3C Assay for Transforming growth factor beta 1 (TGFb1) Biomarker Activity (AID 2283036;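 as to outcome: TGF-b1 protein level measured by ELISA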); details: actives raise or lower the signal; primary human bronchial epithelial cells
Procedure, shortened: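 Read-out: ELISA for TGF-b1 in primary human bronchial epithelial cultures, 24 h post-dose. Bidirectional curve fitting vs DMSO control; gain or loss of signal both scored.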

[2] = read-out: Cyclin D1 (CCND1), CCND1 (gene 595); assay: LTEA_HepaRG_CCND1: Life Technologies and Expression Analysis (LTEA) Assay for Cyclin D1 (CCND1) using HepaRG (AID 2283451); details: actives raise or lower the signal; mRNA level, 48 h
Procedure, shortened: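 Expression of CCND1 was quantified by qRT-PCR on Fluidigm arrays using ACTB, GAPDH and POLR2A as reference genes. HepaRG cultures, plated 48 h beforehand, were dosed for 48 h at up to 100 uM (half-log, 8 points) in 0.5% DMSO.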

[3] = read-out: solute carrier (SLC22A1), SLC22A1 (gene 6580); assay: LTEA_HepaRG_SLC22A1: Life Technologies and Expression Analysis (LTEA) Assay for solute carrier (SLC22A1) using HepaRG (AID 2283524); details: actives raise or lower the signal; mRNA level, 48 h
Procedure, shortened: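 Transcript induction or suppression of SLC22A1 in human HepaRG cultures is scored after 48 h chemical treatment, with DMSO (0.5%) as baseline for bidirectional fitting. Concentrations span eight half-log points topping at 100 uM.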

[4] = read-out: Tumor necrosis factor receptor 1 (TNFRSF1A), TNFRSF1A (gene 7132); assay: LTEA_HepaRG_TNFRSF1A: Life Technologies and Expression Analysis (LTEA) Assay for Tumor necrosis factor receptor 1 (TNFRSF1A) using HepaRG (AID 2283535); details: actives raise or lower the signal; mRNA level, 48 h
Procedure, shortened: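 mRNA measured by qRT-PCR (TaqMan, Fluidigm arrays) against ACTB/GAPDH/POLR2A housekeepers after 48 h chemical exposure of HepaRG cells. Top concentration 100 uM, half-log 8-point series, duplicates; vehicle 0.5% DMSO, both fit directions.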

[5] = Tanguay_ZF_120hpf_OTIC_legacy: (Legacy) Oregon State University Tanguay Lab 120 Hour Post-fertilization zebrafish Assay for Otic Vesicle Malformation (AID 2283639; active = hit-call score of the fitted dose curve at least 0.9, where 1 is the maximum)
[6] = read-out: Pselectin, SELP (gene 6403); assay: BSK_4H_Pselectin: BioMAP Diversity Plus: 4H Assay for Pselectin Biomarker Activity (AID 2283026); details: actives raise or lower the signal; primary human endothelial cells (HUVEC)
Procedure, shortened: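 HUVEC, 24 h chemical exposure; P-selectin read by ELISA. Bidirectional curve fit vs DMSO baseline; gain or loss of signal scored.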

[7] = BSK_BE3C_SRB: Viability Assessment in the BioMAP Diversity Plus: BE3C Assay (AID 2283028); details: primary human bronchial epithelial cells
Procedure, shortened: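 Cytotoxicity read-out: SRB (0.1%) staining of TCA-fixed (10%) human lung bronchial epithelial cells, absorbance 560 nm, 24 h post-dosing. Curves fitted both directions relative to DMSO.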

[8] = BSK_hDFCGF_Proliferation: Cell Proliferation Assessment in the BioMAP Diversity Plus: hDFCGF Assay (AID 2283059); details: primary human foreskin fibroblasts;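 also: curves fitted for both rise and fall of signal versus DMSO baseline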
Procedure, shortened: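 This proliferation readout used SRB total-protein staining of human foreskin fibroblasts […], normalized to DMSO with bidirectional curve fitting.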

[9] = CEETOX_H295R_OHPREG: CeeTox H295R High-throughput Steroidogenesis Assay for OH-Pregnenolone (OHPREG) (AID 2283434); details: actives raise or lower the signal
[10] = read-out: Interleukin-6 (IL6), IL6 (gene 3569); assay: BSK_CASM3C_IL6: BioMAP Diversity Plus: CASM3C Assay for Interleukin-6 (IL6) Biomarker Activity for (AID 2283040); details: actives raise or lower the signal; primary human coronary artery smooth muscle cells
[11] = CEETOX_H295R_PROG: CeeTox H295R High-throughput Steroidogenesis Assay for Progesterone (PROG) (AID 2283442); details: actives raise or lower the signal;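 also: human H295R adrenal cells primed with 10 µM forskolin before dosing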
Procedure, shortened: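 Progesterone secreted by human H295R cells was measured by LC-MS/MS following 48 h chemical exposure at 0.1% DMSO, preceded by 48 h forskolin (10 uM) stimulation. Same-well MTT viability; cytotoxic concentrations diluted 10- or 100-fold and retested.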

[12] = read-out: Secreted IgG (sIgG), gene 3500; assay: BSK_BT_sIgG: BioMAP Diversity Plus: BT Assay for Secreted IgG (sIgG) Biomarker Activity (AID 2284226); details: primary human B cells with PBMC
Procedure, shortened: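 Human B cell/PBMC co-culture; compound exposure 24 h; sIgG by ELISA; gain-of-signal fit vs DMSO baseline.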

[13] = read-out: Human Leukocyte Antigen - DR isotype (HLADR), HLA-DRA (gene 3122); assay: BSK_BE3C_HLADR: BioMAP Diversity Plus: BE3C Assay for Human Leukocyte Antigen - DR isotype (HLADR) Biomarker Activity (AID 2283032); details: actives raise or lower the signal; primary human bronchial epithelial cells
Procedure, shortened: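 Primary human bronchial epithelial cells (BE3C); 24 h chemical exposure; HLA-DR by ELISA; bidirectional curve fit vs DMSO baseline.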

[14] = read-out: Interferon-gamma inducible Protein 10 (IP10), CXCL10 (gene 3627); assay: BSK_KF3CT_IP10: BioMAP Diversity Plus: KF3CT Assay for Interferon-gamma inducible Protein 10 (IP10) Biomarker Activity (AID 2283068); details: actives raise or lower the signal; primary human keratinocytes with fibroblasts
Procedure, shortened: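 Signal is secreted/surface IP-10 by ELISA in a human primary skin co-culture of keratinocytes and foreskin fibroblasts, taken 24 h post-dosing; DMSO served as negative control.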

[15] = read-out: TIMP metallopeptidase inhibitor 2 (TIMP2), TIMP2 (gene 7077); assay: BSK_KF3CT_TIMP2: BioMAP Diversity Plus: KF3CT Assay for TIMP metallopeptidase inhibitor 2 (TIMP2) Biomarker Activity (AID 2283071); details: actives raise or lower the signal; primary human keratinocytes with fibroblasts
Procedure, shortened: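 ELISA readout of TIMP-2 in keratinocyte plus foreskin fibroblast co-cultures (human skin primary cells), 24 h post-dose. Gain or loss of signal fitted relative to DMSO.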

[16] = BSK_LPS_PGE2: BioMAP Diversity Plus: LPS Assay for Prostaglandin E2 (PGE2) Biomarker Activity (AID 2283082); details: actives raise or lower the signal; primary human HUVEC with PBMC;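 also: secreted prostaglandin E2 measured by ELISA in LPS-stimulated co-culture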
Procedure, shortened: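 ELISA read-out of PGE2 from human umbilical vein endothelial cells co-cultured with peripheral blood mononuclear cells under LPS, 24 h post-dose. Gain or loss of signal scored relative to DMSO baseline.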

CYP2C8 (gene 1558) = assay: LTEA_HepaRG_CYP2C8: Life Technologies and Expression Analysis (LTEA) Assay for CYP2C8 using HepaRG (AID 2283483); details: actives raise or lower the signal; mRNA level, 48 h
Procedure, shortened: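 This is a transcriptional endpoint in HepaRG cultures: 48 h exposure, highest concentration 100 uM. CYP2C8 mRNA is quantified by TaqMan qRT-PCR.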

[17] = read-out: Early growth response protein 1 (EGR1) transcription factor, EGR1 (gene 1958); assay: LTEA_HepaRG_EGR1: Life Technologies and Expression Analysis (LTEA) Assay for Early growth response protein 1 (EGR1) transcription factor using HepaRG (AID 2283490); details: actives raise or lower the signal; mRNA level, 48 h
Procedure, shortened: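 EGR1 expression change in human HepaRG after 48 h chemical exposure, assessed by housekeeping-normalized qRT-PCR; concentration-response up to 100 uM, fitted in both directions against DMSO controls.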

[18] = TOX21_p53_BLA_p2_viability: Viability Assessment in the Tox21 HCT-116 p53 Agonism Beta-lactamase Assay, Phase 2 (AID 2283591; active = hit-call score of the fitted dose curve at least 0.9, where 1 is the maximum;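 also: compound exposure lasted 16 h at 37 °C; actives lower the ATP signal meaning cytotoxicity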)
Procedure, shortened: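 HCT-116 p53-bla cells (4000/well) rested 5 h at 37C, then received compounds in DMSO (217-fold dilution) for 16 h at 37C, 5% CO2. After the CCF4 read, CellTiter-Glo was added; ATP luminescence was read after 30 min at room temperature.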

[19] = ACEA_AR_antagonist_AUC_viability: ACEA Biosciences xCELLigence Real-Time Cell Analysis on Androgen Receptor Antagonism for Viability (AID 2283776; active = hit-call score of the fitted dose curve at least 0.9, where 1 is the maximum;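 also: 22Rv1 human prostate cancer cells growing on impedance electrode plates; area under impedance growth curve at 80 h after dosing as viability; hits lower the growth signal relative to DMSO meaning cytotoxicity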)
Procedure, shortened: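 Viability endpoint from label-free cell-index monitoring: 22Rv1 cultures treated with an eight-point 1:4 dilution series starting at 100 uM final, AUC at 80 h fitted against DMSO.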

[20] = CCTE_Shafer_MEA_dev_network_spike_duration_std: CCTE's Neural Network Formation Assay for Standard Deviation of Network Spike Duration, Shafer Lab (AID 2284052);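 also: area under curve of spike duration SD across recording days 5 to 12; hits are decreases in network spike duration SD versus DMSO vehicle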
Procedure, shortened: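 Developing networks of rat cortical neurons were exposed over twelve days in vitro on 48-well MEA plates. Trapezoidal AUC of recordings (DIV 5–12) was analysed for signal loss relative to DMSO vehicle.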

[21] = read-out: Thrombomodulin, THBD (gene 7056); assay: BSK_3C_Thrombomodulin: BioMAP Diversity Plus: 3C Assay for Thrombomodulin Biomarker Activity (AID 2283029); details: actives raise or lower the signal; primary human endothelial cells (HUVEC)
Procedure, shortened: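 HUVEC, 3C conditions; compound 24 h; thrombomodulin by ELISA; bidirectional curve fit vs DMSO baseline; parallel SRB total-protein staining for cytotoxicity.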

[22] = read-out: Vascular endothelial growth factor receptor 2 (Homo sapiens) (UniProt P35968); assay: BSK_4H_VEGFRII: BioMAP Diversity Plus: 4H Assay for Vascular endothelial growth factor receptor 2 (VEGFR2) Biomarker Activity (AID 2283031); details: actives raise or lower the signal; primary human endothelial cells (HUVEC);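 as to AC50: cell-surface VEGFR2 protein level quantified by ELISA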
Procedure, shortened: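 Measured by ELISA after 24 h of compound treatment: VEGFR2 on primary human umbilical vein endothelial cells, fitted in both directions relative to DMSO. Parallel cultures received SRB staining (560 nm) for overt cytotoxicity.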

[23] = read-out: Monokine induced gamma interferon (MIG), CXCL9 (gene 4283); assay: BSK_hDFCGF_MIG: BioMAP Diversity Plus: hDFCGF Assay for Monokine induced gamma interferon (MIG) Biomarker Activity (AID 2283063); details: actives raise or lower the signal; primary human foreskin fibroblasts
Procedure, shortened: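 Human primary foreskin fibroblasts in the hDFCGF system, exposed to test chemical for 24 h; MIG measured by ELISA. Bidirectional curve fitting against DMSO negative control as activity baseline.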

CD38, CD38 (gene 952) = assay: BSK_SAg_CD38: BioMAP Diversity Plus: SAg Assay for CD38 Biomarker Activity (AID 2283087); details: actives raise or lower the signal; primary human HUVEC with PBMC
Procedure, shortened: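 Measures CD38 on a human endothelial/PBMC co-culture driven by SEB and TSST-1, 24 h after compound exposure, using ELISA with fluorescence detection; DMSO defines baseline for bidirectional curve fitting.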

[24] = read-out: Insulin-like growth factor-binding protein 1 (IGFBP1), IGFBP1 (gene 3484); assay: LTEA_HepaRG_IGFBP1: Life Technologies and Expression Analysis (LTEA) Assay for Insulin-like growth factor-binding protein 1 (IGFBP1) using HepaRG (AID 2283508); details: actives raise or lower the signal; mRNA level, 48 h
Procedure, shortened: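 Read-out is qRT-PCR transcript level normalized to three housekeeping genes, fitted in both directions against 0.5% DMSO. Differentiated HepaRG cells received eight half-log concentrations (top 100 uM) in duplicate for 48 h in serum-free induction medium.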

Q: What does the source list for COc1ccc(O)c(C(C)(C)C)c1?
A: outcome [1]: inactive; outcome [2]: inactive; outcome [3]: inactive; outcome [4]: inactive; outcome [5]: inactive

Q: Which outcome [6] does the source give for Oc1c(Br)cc(Br)cc1Br here?
A: inactive

Q: What about the outcome [7] of the same molecule?
A: inactive

Q: What about the AC50 [8] of the same molecule?
A: active: 31.1 µM

Q: And the outcome [9]?
A: inactive

Q: Which results are given for Oc1ccc(-c2ccccc2)cc1?
A: AC50 [10]: active: 20 µM; AC50 [11]: active: 32.3 µM; outcome [12]: inactive

Q: Which AC50 [13] does the source give for O=C1C(Cl)=C(Cl)C(=O)C(Cl)=C1Cl here?
A: active: 24.2 µM

Q: With CC(C)[C@H](C(=O)O[C@H](C#N)c1cccc(Oc2ccccc2)c1)c1ccc(Cl)cc1 as the molecule, how does the outcome [7] read?
A: inactive

Q: What about the outcome [14] of the same molecule?
A: inactive

Q: And the outcome [15]?
A: inactive

Q: And the AC50 [16]?
A: active: 3.27 µM

Q: What about the outcome (CYP2C8 (gene 1558)) of the same molecule?
A: inactive

Q: What about the outcome [17] of the same molecule?
A: inactive

Q: And the outcome [18]?
A: inactive

Q: And the AC50 [19]?
A: active: 19.2 µM

Q: And the AC50 [20]?
A: active: 3.29 µM

Q: For COCC(=O)N(c1c(C)cccc1C)[C@H](C)C(=O)OC, which outcome [21] is on record?
A: inactive

Q: What does the source list for CCCOCC(=Nc1ccc(Cl)cc1C(F)(F)F)n1ccnc1?
A: AC50 [22]: active: 31.2 µM; AC50 [1]: active: 31.4 µM; AC50 [23]: active: 34.8 µM; AC50 (CD38, CD38 (gene 952)): active: 23.7 µM; AC50 [24]: active: 68.5 µM

Q: For CCNc1nc(NC(C)(C)C)nc(SC)n1, which outcome [22] is on record?
A: inactive
